This assay deals with HEK293A TEAD-LUC reporter. The assay is described as follows: TEAD-luciferase reporter activity (YAP activation), robust Z score vs plate; higher = stronger YAP/TEAD activation. As to conditions: 24 h.

This is one part of the list. This data set is noisy: repeats of one test often differ as much as different tests do.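 In a drug-repurposing library screen, luminescence reads luciferase driven by eight TEAD-binding elements, stably integrated into human kidney-derived cells. Compounds scoring over five robust Z scores above the plate mean are called hits.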

Take `COCCOc1cnc2ccn([C@H](C)c3nnc4c(F)cc(-c5cnn(C)c5)cn34)c(=O)c2c1`: the TEAD-luciferase reporter activity is inactive: 0.604 (compound concentration: 200 nM), inactive: -1.1 (compound concentration: 2 uM) and inactive: 3.47 (compound concentration: 10 uM).
For the compound `COc1ccc2nc3[nH]nc(C)c3c(SCc3ccco3)c2c1`, the TEAD-luciferase reporter activity (compound concentration: 200 nM) is inactive: 0.37, the TEAD-luciferase reporter activity (compound concentration: 2 uM) is inactive: -0.205 and the TEAD-luciferase reporter activity (compound concentration: 10 uM) was inactive: -0.446.
`Cc1ccc(S(=O)(=O)NC(=O)N[C@H]2[C@@H](O)[C@@]3(C)CC[C@@H]2C3(C)C)cc1`: the TEAD-luciferase reporter activity is inactive: -1.34 (compound concentration: 200 nM), inactive: -1.56 (compound concentration: 2 uM) and inactive: -0.484 (compound concentration: 10 uM).
Turning to `COc1cc(C)c2c(Oc3cccc(C(F)(F)F)c3)c(OC)cc(NC(C)CCCN)c2n1` (configuration not stated), the TEAD-luciferase reporter activity by setting is: (compound concentration: 200 nM) inactive: -0.734; (compound concentration: 10 uM) inactive: 1.94.
For the compound `COc1cc(C)c2c(Oc3cccc(C(F)(F)F)c3)c(OC)cc(NC(C)CCCN)c2n1` (configuration not stated) [tafenoquine], the TEAD-luciferase reporter activity (compound concentration: 2 uM) is inactive: -2.31.
As for `Cc1cc(/C=C/c2cccs2)cc(C)c1O` [metabolite of BIL 357], the TEAD-luciferase reporter activity runs as follows: (compound concentration: 200 nM) inactive: 0.221; (compound concentration: 2 uM) inactive: 0.403; (compound concentration: 10 uM) inactive: 2.48.
Take `N#CC(=C(/N)Sc1ccccc1N)/C(C#N)=C(\N)Sc1ccccc1N`: the TEAD-luciferase reporter activity was inactive: 0.209 (compound concentration: 200 nM), inactive: 0.339 (compound concentration: 2 uM) and inactive: 0.231 (compound concentration: 10 uM).
The matching figures for `Cn1ccc(S(=O)(=O)N2CCCC(Nc3nccc(-c4c(-c5cccc(OCOP(=O)([O-])[O-])c5)nc5occn45)n3)C2)n1` (configuration not stated): inactive: 0.458, inactive: -1.59 and inactive: -1.4.
For `CN(CCO)c1nc2c(c(=O)n(C)c(=O)n2C)n1C`, the TEAD-luciferase reporter activity was inactive: -0.931 (compound concentration: 200 nM), inactive: -0.898 (compound concentration: 2 uM) and inactive: -1.67 (compound concentration: 10 uM).
As for `N[C@@H](CCC(=O)O)C(=O)N1CCC[C@H]1B(O)O`, the TEAD-luciferase reporter activity (compound concentration: 200 nM) was inactive: 0.742, the TEAD-luciferase reporter activity (compound concentration: 2 uM) is inactive: -0.626 and the TEAD-luciferase reporter activity (compound concentration: 10 uM) is inactive: -0.141.
Take `COCCN1CCC(N(Cc2ccc(-c3ccc(C(F)(F)F)cc3)cc2)C(=O)C2CCC(=O)N2)CC1` (configuration not stated): the TEAD-luciferase reporter activity (compound concentration: 200 nM) was inactive: -1.74, the TEAD-luciferase reporter activity (compound concentration: 2 uM) is inactive: 0.00815 and the TEAD-luciferase reporter activity (compound concentration: 10 uM) was inactive: -0.567.
On to `Clc1ccccc1Cn1ccnc1`, for which the TEAD-luciferase reporter activity reads like this: (compound concentration: 200 nM) inactive: -0.847; (compound concentration: 2 uM) inactive: -0.756; (compound concentration: 10 uM) inactive: 0.672.
As to `C=C1N[C@]2(C(=O)COC(C)=O)[C@@H](C[C@H]3[C@@H]4CCC5=CC(=O)C=C[C@]5(C)[C@H]4[C@@H](O)C[C@@]32C)O1` [deflazacort], the TEAD-luciferase reporter activity runs as follows: (compound concentration: 200 nM) inactive: -0.837; (compound concentration: 2 uM) inactive: -1.27; (compound concentration: 10 uM) inactive: 2.36.
Regarding `CC(C)=CCOc1cc(NC(=O)c2ccncc2)ccc1Cl`, the TEAD-luciferase reporter activity (compound concentration: 200 nM) was inactive: 3.21, the TEAD-luciferase reporter activity (compound concentration: 2 uM) is inactive: -0.643 and the TEAD-luciferase reporter activity (compound concentration: 10 uM) is inactive: 2.37.
In the case of `Cc1cc(CC(=O)O)n(C)c1C(=O)c1ccc(Cl)cc1` [Zomepirac sodium], the TEAD-luciferase reporter activity (compound concentration: 200 nM) is inactive: -0.0796, the TEAD-luciferase reporter activity (compound concentration: 2 uM) was inactive: -0.63 and the TEAD-luciferase reporter activity (compound concentration: 10 uM) is inactive: 3.06.

Source of the values: the supplement of paper PMC10735217.
